Data as given in doi:10.1101/2020.06.23.167247.
Results are given in words; binding and its absence hold for the method and conditions named. Some binding calls cover weakened binding; strength is not graded here. Where a sequence is shown, tags or fusion partners need not be part of it.

T1: L-galactono-1,4-lactone dehydrogenase (L-GalLDH), yeast two-hybrid fusions (Arabidopsis thaliana) (UniProt Q9SU56)
T1 sequence: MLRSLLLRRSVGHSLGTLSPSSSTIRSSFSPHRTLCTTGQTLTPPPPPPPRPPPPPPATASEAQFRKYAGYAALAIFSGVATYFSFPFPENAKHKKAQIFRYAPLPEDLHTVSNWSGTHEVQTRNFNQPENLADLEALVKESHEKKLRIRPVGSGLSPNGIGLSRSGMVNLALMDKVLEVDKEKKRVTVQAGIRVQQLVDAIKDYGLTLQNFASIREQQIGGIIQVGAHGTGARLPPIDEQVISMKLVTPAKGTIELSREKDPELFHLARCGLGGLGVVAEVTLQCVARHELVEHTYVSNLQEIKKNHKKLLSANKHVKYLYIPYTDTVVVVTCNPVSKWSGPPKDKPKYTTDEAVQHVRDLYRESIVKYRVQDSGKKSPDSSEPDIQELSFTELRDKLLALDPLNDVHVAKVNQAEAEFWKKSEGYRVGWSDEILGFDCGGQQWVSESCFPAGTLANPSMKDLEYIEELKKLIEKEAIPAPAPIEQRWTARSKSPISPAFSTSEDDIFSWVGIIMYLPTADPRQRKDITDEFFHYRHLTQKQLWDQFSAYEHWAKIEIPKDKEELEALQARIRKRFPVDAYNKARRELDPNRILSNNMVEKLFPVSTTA

T2: L-galactose dehydrogenase (L-GalDH), yeast two-hybrid fusions (Arabidopsis thaliana) (UniProt O81884)
T2 sequence: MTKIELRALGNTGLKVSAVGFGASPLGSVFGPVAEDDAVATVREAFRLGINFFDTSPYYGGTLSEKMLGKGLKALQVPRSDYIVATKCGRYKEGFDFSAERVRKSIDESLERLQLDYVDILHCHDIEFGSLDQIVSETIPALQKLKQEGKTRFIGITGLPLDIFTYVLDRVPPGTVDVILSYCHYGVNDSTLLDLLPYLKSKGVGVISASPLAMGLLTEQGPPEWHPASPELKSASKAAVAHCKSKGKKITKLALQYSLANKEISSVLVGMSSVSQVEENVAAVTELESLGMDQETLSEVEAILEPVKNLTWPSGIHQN

T3: L-galactose 1-phosphate phosphatase (VTC4), yeast two-hybrid fusions (Arabidopsis thaliana) (UniProt Q9M8S8)
T3 sequence: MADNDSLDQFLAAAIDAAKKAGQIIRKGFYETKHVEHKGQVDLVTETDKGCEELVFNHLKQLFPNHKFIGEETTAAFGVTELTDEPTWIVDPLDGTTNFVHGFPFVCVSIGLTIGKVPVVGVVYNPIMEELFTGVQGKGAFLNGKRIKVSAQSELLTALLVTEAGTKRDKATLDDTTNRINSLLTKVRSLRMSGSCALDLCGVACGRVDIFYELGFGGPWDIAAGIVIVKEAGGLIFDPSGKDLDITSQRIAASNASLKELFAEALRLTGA


What was measured:
Test in all cases: two-hybrid
[1] = biological target: T1, L-galactono-1,4-lactone dehydrogenase (L-GalLDH), yeast two-hybrid fusions (Arabidopsis thaliana)
[2] = biological target: T2, L-galactose dehydrogenase (L-GalDH), yeast two-hybrid fusions (Arabidopsis thaliana)
[3] = biological target: GDP-D-mannose epimerase (GME), yeast two-hybrid fusions (Arabidopsis thaliana) (UniProt Q93VR3)
[4] = biological target: T3, L-galactose 1-phosphate phosphatase (VTC4), yeast two-hybrid fusions (Arabidopsis thaliana)

| binding [1] | binding [2] | binding [3] | binding [4] | Binder |
| --- | --- | --- | --- | --- |
| no binding | no binding | – | – | GDP-L-galactose phosphorylase (VTC2), yeast two-hybrid fusions (enzyme, UniProt Q8RWE8 1-442) MLKIKRVPTVVSNYQKDDGAEDPVGCGRNCLGACCLNGARLPLYACKNLVKSGEKLVISHEAIEPPVAFLESLVLGEWEDRFQRGLFRYDVTACETKVIPGKYGFVAQLNEGRHLKKRPTEFRVDKVLQSFDGSKFNFTKVGQEELLFQFEAGEDAQVQFFPCMPIDPENSPSVVAINVSPIEYGHVLLIPRVLDCLPQRIDHKSLLLAVHMAAEAANPYFRLGYNSLGAFATINHLHFQAYYLAMPFPLEKAPTKKITTTVSGVKISELLSYPVRSLLFEGGSSMQELSDTVSDCCVCLQNNNIPFNILISDCGRQIFLMPQCYAEKQALGEVSPEVLETQVNPAVWEISGHMVLKRKEDYEGASEDNAWRLLAEASLSEERFKEVTALAFEAIGCSNQEEDLEGTIVHQQNSSGNVNQKSNRTHGGPITNGTAAECLVLQ |
| no binding | no binding | binds | no binding | GDP-D-mannose epimerase (GME), yeast two-hybrid fusions (enzyme, UniProt Q93VR3 1-377) MGTTNGTDYGAYTYKELEREQYWPSENLKISITGAGGFIASHIARRLKHEGHYVIASDWKKNEHMTEDMFCDEFHLVDLRVMENCLKVTEGVDHVFNLAADMGGMGFIQSNHSVIMYNNTMISFNMIEAARINGIKRFFYASSACIYPEFKQLETTNVSLKESDAWPAEPQDAYGLEKLATEELCKHYNKDFGIECRIGRFHNIYGPFGTWKGGREKAPAAFCRKAQTSTDRFEMWGDGLQTRSFTFIDECVEGVLRLTKSDFREPVNIGSDEMVSMNEMAEMVLSFEEKKLPIHHIPGPEGVRGRNSDNNLIKEKLGWAPNMRLKEGLRITYFWIKEQIEKEKAKGSDVSLYGSSKVVGTQAPVQLGSLRAADGKE |
| no binding | – | – | – | L-galactose dehydrogenase (L-GalDH), yeast two-hybrid fusions (enzyme, UniProt O81884 1-319) MTKIELRALGNTGLKVSAVGFGASPLGSVFGPVAEDDAVATVREAFRLGINFFDTSPYYGGTLSEKMLGKGLKALQVPRSDYIVATKCGRYKEGFDFSAERVRKSIDESLERLQLDYVDILHCHDIEFGSLDQIVSETIPALQKLKQEGKTRFIGITGLPLDIFTYVLDRVPPGTVDVILSYCHYGVNDSTLLDLLPYLKSKGVGVISASPLAMGLLTEQGPPEWHPASPELKSASKAAVAHCKSKGKKITKLALQYSLANKEISSVLVGMSSVSQVEENVAAVTELESLGMDQETLSEVEAILEPVKNLTWPSGIHQN |
| no binding | – | – | binds | L-galactose 1-phosphate phosphatase (VTC4), yeast two-hybrid fusions (enzyme, UniProt Q9M8S8 1-271) MADNDSLDQFLAAAIDAAKKAGQIIRKGFYETKHVEHKGQVDLVTETDKGCEELVFNHLKQLFPNHKFIGEETTAAFGVTELTDEPTWIVDPLDGTTNFVHGFPFVCVSIGLTIGKVPVVGVVYNPIMEELFTGVQGKGAFLNGKRIKVSAQSELLTALLVTEAGTKRDKATLDDTTNRINSLLTKVRSLRMSGSCALDLCGVACGRVDIFYELGFGGPWDIAAGIVIVKEAGGLIFDPSGKDLDITSQRIAASNASLKELFAEALRLTGA |
